Out of some 220,000 compounds screened, about 2,400 (1.1%) were called active. Inconclusive means that the source gave no clear call. Such entries were picked first, then a sample of the others. Calls follow the shape of the dose curve; as a rule, active = well fitted inhibition curve with a large enough effect; inconclusive = small, poorly fitted or top-dose-only effect, or effect the other way; inactive = no such curve, though single readings can be large or run the other way. Where the call is inconclusive, the potency comes from a doubtful curve fit.
Assay: qHTS Multiplex Assay to Identify Dual Action Probes in a Cell Model of Huntington: Aggregate Formation (GFP); also: nearly all actives have a fitted effect of over 60% in size
Conditions: PC12 HttQ103-GFP aggregates, Acumen cytometry, 40 h; activity change, negative = inhibition: at 46.1 µM (top of the series) unless noted
Method in brief: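 PC12/HTTQ103-GFP, ecdysone-inducible; teb 100 nM; cpd qHTS titration; GFP aggregates read on laser cytometer, Ex 488/Em 500-530 nm.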
% is scaled to controls: 0 for no effect and ±100 for the full control effect; potency is read from the fitted curve at half-maximal effect.

SMILES	Potency	activity change, negative = inhibition
Clc1ccc(-c2cc(-c3nnc4n3CCCCC4)c3ccccc3n2)cc1	inconclusive: 35.5 µM [inhibitor, single point]	
COc1ccc(CNC(=S)Nc2ccccc2C)cc1	inconclusive: 6.31 µM [activator, single point]	
CCOc1cc(C)c(S(=O)(=O)Nc2ccc(F)cc2)cc1C	inconclusive: 10 µM [inhibitor, partial curve]	
Cc1ccnc(NC(=O)CC(c2ccccc2)c2ccccc2)n1	inactive	
OCCN1CCN(c2nc3ccccc3nc2-c2ccccc2)CC1	inconclusive: 10 µM [activator, partial curve, poor fit]	
N=c1n(Cc2ccc(Cl)cc2)c2ccccc2n1CC(O)COc1ccccc1 (configuration not stated)	active: 14.1 µM	
CCn1c(C(=O)NCCCN2CCc3ccccc3C2)cc2sccc21	inactive	
COc1ccc(/C=N/NC(N)=S)cc1OC(=O)c1cccc2ccccc12	inconclusive: 35.5 µM [inhibitor, single point]	
O=C(NNC1=C(C(=O)C(F)(F)F)CCC1)c1cccc(Cl)c1	inconclusive: 25.1 µM [inhibitor, single point]	
O=C(O)c1ccc(N=NN2CCCCCC2)cc1	inconclusive: 11.2 µM [activator, single point]	
COc1ccccc1NC(=O)N1c2ccc(F)cc2CCC1C (configuration not stated)	inconclusive: 35.5 µM [activator, single point]	
CC(=O)Nc1ccc2nc(-c3ccncc3)[nH]c2c1		inactive: 15.2% [at 9.22 µM]
COC(=O)c1ccccc1NC(=O)CN1CCC(C)CC1	inactive	
CCc1ccc(CN2CCN(C(=O)c3cccc(OC)c3OC)CC2)cc1	active: 7.94 µM	
CCOc1ccc(/C=C2\SC(=S)N(Nc3ccccc3)C2=O)cc1OC	inconclusive: 35.5 µM [activator, single point]	
Cn1sc(NC(=O)c2cccc(Cl)c2)nc1=O	inactive	
Cc1cc(C)nc(SCC(=O)N2CCOCC2)n1	inactive	
OCCNCCCCOc1ccc(OCc2ccccc2)cc1	inconclusive: 0.794 µM [inhibitor, single point]	
CC(=O)Oc1c(C)cc(O)c2ccccc12	active: 14.1 µM	
Clc1cccc(-c2cc3nc4c(c(N5CCOCC5)n3n2)CCCC4)c1	inconclusive: 3.55 µM [inhibitor, partial curve]	
COc1ccc(N2CCN(C(=O)c3ccc4c(=O)n(CC5CCCO5)c(=O)[nH]c4c3)CC2)cc1 (configuration not stated)	inactive	
CN(C)c1ccc(S(=O)(=O)N2CCCCC2)cc1NC(=O)COc1ccccc1F	inconclusive: 5.62 µM [activator, single point]	
CC(C)/C=C1\CC/C(=C\c2ccc(N(C)C)cc2)C1=O	inactive	
COC(=O)/C=C/C(=O)N1CCN(c2cccc(Cl)c2)CC1	inconclusive: 20 µM [activator, partial curve]	
Cc1ccc(S(=O)(=O)NN2C(=O)/C(=C/c3ccccn3)SC2=S)cc1	inactive	
O=C1C=C(N(CCO)Cc2ccccc2)c2ccccc2C1=O	active: 8.91 µM	

SMILES	Potency	activity change, negative = inhibition
Cc1nnc(SCc2cccc([N+](=O)[O-])c2)s1	inconclusive: 4.47 µM [activator, single point]	
CSc1cccc(NC(=O)Cn2cccc2)c1	inactive	
O=C(Nc1ccc(Cl)c(Cl)c1)Nc1ccc(Br)cc1F	inconclusive: 35.5 µM [inhibitor, single point]	
CCOc1ccc(OCC)c(NC(=O)CCn2cccc2)c1	inconclusive: 5.62 µM [activator, single point]	
COC(=O)c1cnc2ccccc2n1	inactive	
COc1ccc(OC)c(C(c2nnnn2C2CCCC2)N2CCN(c3ccccc3F)CC2)c1 (configuration not stated)	inconclusive: 35.5 µM [inhibitor, partial curve]	
COc1cc(CNC(=O)c2nc(Cn3nc(C)c(Br)c3C)no2)cc(OC)c1	inactive	
Brc1ccc2nc(N3CCCC3)sc2c1	inconclusive: 0.562 µM [activator, partial curve, poor fit]	
Cc1cc(NC(=O)Nc2ccc(F)cc2F)n(C)n1	inconclusive: 0.562 µM [activator, partial curve, poor fit]	
CCOC(=O)CC(NCc1ccc(OC)c(OCC)c1)c1ccc(C)cc1 (configuration not stated)	inactive	
O=C(c1cccc2c1-c1ccccc1/C2=N/O)N1CCCCC1	active: 11.2 µM	
O=C(c1ccc(N2CCCCC2)c([N+](=O)[O-])c1)N(Cc1ccccc1)c1ccccn1	inconclusive: 25.1 µM [inhibitor, single point]	
COc1cccc(NC(=O)c2oc3ccccc3c2NC(=O)C(C)(C)C)c1	inconclusive: 14.1 µM [inhibitor, single point]	
CCN1CCS/C1=C\C=C\C1=[N+](CC)CCS1	active: 1.12 µM	
Cc1ccccc1C(=O)N/N=C/c1ccc([N+](=O)[O-])s1	active: 25.1 µM	
O=C(CN1CCCc2ccccc21)N/N=C/c1c(O)ccc2ccccc12	active: 10 µM	
O=C(COC(=O)c1ccc(NS(=O)(=O)c2cccs2)cc1)NCc1ccco1		inactive: 9.87% [at 9.22 µM]
CC1(N2CCOCC2)CC2(O)C(=[N+]1[O-])CCc1c2no[n+]1[O-] (configuration not stated)	inconclusive: 35.5 µM [activator, single point]	
COc1ccc(/C=C2\C(=O)OCc3cc(OC)c(OC)cc32)cc1OC	inconclusive: 17.8 µM [activator, partial curve]	
Cc1nnc(-c2ccco2)c2cn(-c3cccc(Br)c3)nc12	inconclusive: 0.501 µM [activator, partial curve, poor fit]	
N#Cc1ccccc1NC(=O)c1cc(=O)c2ccccc2o1	inconclusive: 12.6 µM [inhibitor, single point]	
CCOc1ccc(Cl)cc1S(=O)(=O)N1CCCC1	inactive	
CCCCCCCCOC(=O)/C=C/c1c(C)[nH]c(=O)[nH]c1=O	inconclusive: 6.31 µM [inhibitor, partial curve]	
O=C(CSC(=S)N1CCOCC1)N1N=CCC1c1ccccc1 (configuration not stated)	inconclusive: 0.501 µM [inhibitor, full curve, poor fit]	
O=S(=O)(c1ccccc1)c1nc(-c2ccccc2)oc1NCc1cccnc1		inactive: -7.47% [at 9.22 µM]
O=C(NC(=S)Nc1cccc2[nH]ncc12)c1ccccc1	active: 10 µM	

SMILES	Potency	activity change, negative = inhibition
O=C1CN(C(=O)Cn2ncc(Cl)c(Cl)c2=O)c2ccccc2N1	active: 11.2 µM	
O=C1c2ccccc2-n2c1nc1ccccc1c2=O	active: 11.2 µM	
Cc1ccc(-c2n[nH]c(=S)n2/N=C/C=C/c2ccccc2[N+](=O)[O-])cc1	inconclusive: 11.2 µM [activator, partial curve]	
CN(C)S(=O)(=O)Oc1cccc(C(=O)Nc2ccc([N+](=O)[O-])cc2)c1	inconclusive: 17.8 µM [inhibitor, single point]	
CCn1c(SCC(=O)Nc2ccc3c(c2)OCO3)nc2c1c(=O)n(C)c(=O)n2C	inactive	
Cc1noc(C)c1COC(=O)/C=C/c1ccccc1Cl	inactive	
COc1ccc(-c2cc(C3CCN(Cc4cccc(C(F)(F)F)c4)CC3)[nH]n2)cc1	inconclusive: 11.2 µM [inhibitor, single point]	
CCOC(=O)CSC1=C(C#N)C(c2ccccc2F)C(C(C)=O)=C(C)N1 (configuration not stated)	inactive	
Brc1cccc(-c2cnc3n2CCCCC3)c1	inconclusive: 11.2 µM [inhibitor, single point]	
COc1ccc(/C=C/C(=O)OCC(=O)c2c(N)n(C)c(=O)n(C)c2=O)c(OC)c1	inconclusive: 3.16 µM [activator, single point]	
CCOc1cc(/C=C2\SC(=N)N(c3nccs3)C2=O)ccc1OCCN1CCOCC1	inconclusive: 35.5 µM [activator, single point]	
COc1cc(CNCCSc2nnnn2C)cc(Br)c1OCc1ccccc1	inconclusive: 20 µM [inhibitor, single point]	
O=S(=O)(Nc1nc2ccccc2nc1Nc1ccc2c(c1)OCO2)c1ccccc1	inconclusive: 35.5 µM [inhibitor, single point]	
Cc1cccc(NC(=S)N=Nc2c(O)[nH]c3ccccc23)c1	active: 3.98 µM	
CNC(=O)c1nnsc1S(=O)c1ccc(Cl)cc1 (configuration not stated)	active: 14.1 µM	
CC(=O)C1=C(C)NC(SCC(=O)c2cc(Cl)ccc2Cl)=C(C#N)C1c1ccco1 (configuration not stated)	inconclusive: 11.2 µM [inhibitor, partial curve, poor fit]	
Cc1cc(=O)c2cc(Br)ccc2n1CC(=O)NCc1ccccc1	inconclusive: 1.26 µM [inhibitor, single point]	
Cc1ccc(NC(=O)c2cccc3c2-c2ccccc2C3=O)cc1C	inconclusive: 3.55 µM [inhibitor, single point]	
O=C1c2ccccc2C(=O)N1CCc1nc(-c2ccccn2)no1	inactive	
Cc1ccc(C2C(C(=O)c3cc4ccccc4o3)=C(O)C(=O)N2CCN2CCOCC2)o1 (configuration not stated)	inconclusive: 12.6 µM [activator, single point]	
CN(C)C(=N)N=C(N)N	inconclusive: 11.2 µM [inhibitor, single point]	
CC1CC1C(=O)Nc1nc(-c2ccc(Cl)s2)cs1 (configuration not stated)	inconclusive: 14.1 µM [inhibitor, single point]	
CC(C)C(c1nnnn1Cc1ccccc1)N1CCc2ccccc2C1 (configuration not stated)	inactive	
O=C(CSc1cccc[n+]1[O-])c1ccccc1Br	inactive	
O=C1CC(/C=C/c2ccccn2)=Nc2ccccc2N1	inconclusive: 35.5 µM [inhibitor, partial curve, poor fit]	

A stretch taken from the entries so far, for reference:
SMILES	Potency	activity change, negative = inhibition
O=C1CN(C(=O)Cn2ncc(Cl)c(Cl)c2=O)c2ccccc2N1	active: 11.2 µM	
O=C1c2ccccc2-n2c1nc1ccccc1c2=O	active: 11.2 µM	
Cc1ccc(-c2n[nH]c(=S)n2/N=C/C=C/c2ccccc2[N+](=O)[O-])cc1	inconclusive: 11.2 µM [activator, partial curve]	
CN(C)S(=O)(=O)Oc1cccc(C(=O)Nc2ccc([N+](=O)[O-])cc2)c1	inconclusive: 17.8 µM [inhibitor, single point]	
CCn1c(SCC(=O)Nc2ccc3c(c2)OCO3)nc2c1c(=O)n(C)c(=O)n2C	inactive	

From PubChem BioAssay AID1688 (National Center for Advancing Translational Sciences (NCATS), 2009)
